# Inconclusive results, whose numbers are uncertain, are shown with a selection of clear calls. Potencies beside an inconclusive call are fits to weak or partial responses and may not hold up. The source made the active and inactive calls. Calls come from the whole dose curve.
# Assay: Natriuretic polypeptide receptor (hNpr1) antagonism - Pilot counterscreen GloSensor control cell line (AID 1347045)
# Details: HEK293 cGMP GloSensor cells, SNP-stimulated luminescence, 20 min; series mostly up to 38.3 µM
# Method: F. Fan, B. F. Binkowski, B. L. Butler, P. F. Stecha, M. K. Lewis, K. V. Wood, Novel genetically encoded biosensors using firefly luciferase. ACS Chem Biol 3, 346-351 (2008).
# PROTOCOL TABLE (as described by Inglese J, Shamu CE and Guy RK. 2007)
# SEQUENCE No. (e.g., 1, 2, 3, etc.); […] (e.g., Cells, Incubation, Reagent, etc.); VALUE and DESCRIPTION.
# 1. Cells. Seed 1500 HEK293 cGMP-sensor cells per well in 4uL into Greiner 1536-well white/solid bottom high base, TC plates.
# 2. Incubation. Incubate plated cells at 37C in 5% CO2, 95% RH overnight.
# 3. Reagent. Add 1uL per well GloSensor reagent from Promega (2% final concentration) or CO2 independent media vehicle control to respective columns of Greiner 1536-well plates.
# 4. Incubation. Incubate plated cells at room temperature for 2 h, protect from light.
# 5. Compounds. Library compounds and DMSO vehicle control added at 23nL per well, transferred by Pin Tool.
# 6. Incubation. Incubate plated cells for 30 min. at room temperature, protect from light.
# 7. Detector. GloSensor baseline pre-read luminescence measured using CCD-based camera (Viewlux).
# 8. Compound. Add 1uL of sodium nitroprusside (SNP) to 50 uM final concentration to stimulate soluble guanylyl cyclase (GC) or CO2 independent media as vehicle control.
# 9. Incubation. Incubate treated cells at room temperature for 20 min., protect from light.
# 10. Detector. GloSensor post-SNP luminescence measured using CCD-based camera (Viewlux).
# NOTES (numbers refer to Sequence numbers above; values are from representative experiments)
# 1. HEK293 cells expressing GIP/pGS-40F were grown to 85-95% confluence (48-72 h) in T175 culture flasks (CO2 independent media supplemented with 10% FBS, 1% Pen/Strep antibiotics, and 1 ug/mL puromycin). Trypsinize and harvest cells from T175 culture flasks and filter through 40 um cell strainer. Cells counted with Invitrogen Countess (30,000,000 - 50,000,000 cells/flask).
# 2. Cells incubated for 24 h. at 37C in 95% RH incubator with metal lid having gas-exchange holes.
# 3. Prepare GloSensor Reagent (Promega): Reconstitute GloSensor luciferase substrate by adding 8.2mL Hepes buffer to 250mg substrate, mix well, protect from light and stored at -80C. Prepare a fresh 12% GloSensor solution in CO2 independent supplemented plating media (see above). Mix well and store at ambient temperature, protected from light. 1uL 12% GloSensor Luciferase Reagent added (2% final concentration) to respective columns of 9 x 1536-well Greiner plate with BioRaptr, 1uL CO2 independent plating media added to respective columns as vehicle control with BioRaptr.
# 4. Cells incubated for 2 h. at ambient temperature, protected from light with metal lid having gas-exchange holes.
# 5. 23nL of LOPAC128 library compounds (7 plates) or DMSO vehicle control transferred to 9 Greiner white/solid bottom high base, TC plates in 7 interplate 1:5 titrations (see Yasgar, A. et al. 2008) with Pintool. Two of the 9 plates are DMSO-only in compound field at beginning and end of compound library-treated plates.
# 6. Cells incubated for 30-50 min. at ambient temperature protected from light with metal lid having gas-exchange holes.
# 7. Read GloSensor + Antagonist/Compound baseline Luminescence on the ViewLux [Exposure, 30 s; Gain, High; Speed, Slow; Binning, 2X]
# 8. SNP solution prepared at 500 mM (in H2O) stock concentration. From this a working dilution was prepared at 300 uM in CO2 Independent media. 1uL of 300 uM SNP (50 uM final concentration) or CO2 Independent media vehicle control dispensed into respective columns of 9 x Greiner 1536-well white/solid bottom, tissue culture plates with BioRaptr.
# 9. Cells incubated for 20 min. at ambient temperature, protected from light with metal lid having gas-exchange holes.
# 10. Read final luminescence on the ViewLux. [Exposure, 30 s; Gain, High; Speed, Slow; Binning, 2X.]
# […]
# Potency is the fitted concentration of half-maximal effect.
row,Structure (SMILES),Potency
1,CN1CCN2c3ccccc3Cc3ccccc3C2C1 (configuration not stated),inactive
2,CCN1CCCC1CNC(=O)c1cc(S(=O)(=O)CC)c(N)cc1OC (configuration not stated),inactive
3,NS(=O)(=O)c1cc2c(cc1Cl)NC=NS2(=O)=O,"inconclusive: 0.0037 µM [inhibitor, full curve, poor fit]"
4,COc1cc2c(c(OC)c1OC)-c1ccc(OC)c(=O)cc1[C@@H](NC(C)=O)CC2,inactive
5,CC(C)(Sc1ccc(CCN(CCCCC2CCCCC2)C(=O)NC2CCCCC2)cc1)C(=O)O,"inconclusive: 0.233 µM [inhibitor, full curve, poor fit]"
6,CC(=O)N1CCN(c2ccc(OC[C@H]3CO[C@](Cn4ccnc4)(c4ccc(Cl)cc4Cl)O3)cc2)CC1,active: 18.5 µM
7,COc1cc2nc(N(C)CCCNC(=O)C3CCCO3)nc(N)c2cc1OC (configuration not stated),"inconclusive: 5.85 µM [inhibitor, single point]"
8,NCCCCNCCCN,inactive
9,Cc1cn([C@H]2C[C@H](N=[N+]=[N-])[C@@H](CO)O2)c(=O)[nH]c1=O,"inconclusive: 10.4 µM [inhibitor, partial curve, poor fit]"
10,Cc1ccc(S(=O)(=O)N[C@@H](Cc2ccccc2)C(=O)CCl)cc1,active: 3.29 µM
11,COc1cc2nc(N3CCN(C(=O)C4COc5ccccc5O4)CC3)nc(N)c2cc1OC (configuration not stated),"inconclusive: 29.3 µM [inhibitor, single point]"
12,O=C(c1ccc(F)cc1)C1CCN(CCn2c(=O)[nH]c3ccccc3c2=O)CC1,inactive

# Looked up by structure from the entries so far:
row,Structure (SMILES),Potency
10,Cc1ccc(S(=O)(=O)N[C@@H](Cc2ccccc2)C(=O)CCl)cc1,active: 3.29 µM
2,CCN1CCCC1CNC(=O)c1cc(S(=O)(=O)CC)c(N)cc1OC (configuration not stated),inactive

# — PubChem BioAssay (NCATS)
